Whole data set: some 33,000 sequences, median “E-score (-0.5 to 0.5)” near -0.0059, cut for the highest 2% near 0.26. The list shows a part of the results.
target: T1, Cin5 (UniProt P40917); assay: PBM E-score (8-mer binding enrichment) (E-score (-0.5 to 0.5)); higher = stronger / more preferred TF binding; settings: protein concentration: 100 nM; construct: GST-full length
T1 sequence: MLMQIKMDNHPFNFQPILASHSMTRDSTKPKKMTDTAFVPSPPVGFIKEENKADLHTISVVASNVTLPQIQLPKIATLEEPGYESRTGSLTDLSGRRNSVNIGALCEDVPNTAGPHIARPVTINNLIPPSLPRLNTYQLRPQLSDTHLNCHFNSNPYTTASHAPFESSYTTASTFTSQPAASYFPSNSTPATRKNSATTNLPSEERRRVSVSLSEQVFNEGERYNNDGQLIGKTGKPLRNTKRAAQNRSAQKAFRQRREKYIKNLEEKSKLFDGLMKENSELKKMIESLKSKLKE
Method in brief: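 E-scores (a modified Wilcoxon-Mann-Whitney statistic) were assigned by the Universal PBM Analysis Suite to every ungapped eight-base word pooled with its reverse complement. The input came from universal all-10-mer Agilent arrays made double-stranded by primer extension and probed with GST-tagged yeast transcription factors at about 100-200 nM. Fluorescent anti-GST detected bound protein, and masliner normalised the scans.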

Row | Sequence | PBM E-score
1 | TAGATAGA | 0.0443
2 | TCATTCGA | 0.206
3 | ATTGCAAC | 0.0487
4 | CCAACGCC | -0.23
5 | AAACCGGG | 0.0431
6 | AACCCCAG | 0.0653
7 | AACTGCGA | -0.103
8 | ATTTTTCC | -0.0233
9 | CTGGAAGA | 0.0228
10 | AACCCCCG | -0.352
11 | AGGTGCGA | -0.15
12 | GCTGCTGA | 0.0794
13 | AGAAAGAA | -0.00532
14 | ACCACTTC | -0.0615
15 | AAGCATCA | 0.184
16 | AACGCAAT | 0.0777
17 | CGGTGTAG | -0.0609
18 | ATAGTACA | 0.17
19 | AGCTGCGC | 0.00815
20 | TAAATCTA | 0.00614
21 | AGGGAAGG | -0.293
22 | CCATTCTC | -0.00689
23 | ACTTGCGC | -0.0334
24 | CGAGGTCA | -0.0217
25 | GCTCCCGA | -0.217

Row | Sequence | PBM E-score
26 | CAAAATCA | 0.104
27 | TCTCAAGA | -0.0862
28 | CGTATGGC | -0.026
29 | GTCTTGGA | -0.112
30 | AATAGAGC | 0.153
31 | GGCCCGGA | -0.219
32 | CCGCGCCC | -0.1
33 | AAGAGTAC | -0.0537
34 | AGGCCGGC | -0.0664
35 | CCCGTTAG | -0.276
36 | ATATGAAT | 0.167
37 | ACGCAAAC | 0.0223
38 | ACCCCAGC | 0.113
39 | CCCGACAG | -0.0637
40 | ATTACGAA | 0.295
41 | CGGCATAG | -0.0478
42 | CCCATCAG | -0.165
43 | TATTTTAA | 0.21
44 | ATACGTGA | 0.08
45 | ATGTCTAG | -0.0808
46 | CCTCGGTA | -0.296
47 | CCCAGCCA | 0.025
48 | ACGTCTTC | -0.0942
49 | ACCTATGC | -0.0406
50 | CGCGTTAG | -0.0956

Row | Sequence | PBM E-score
51 | ATGAACTA | 0.179
52 | AGGTGCTA | -0.0573
53 | GATGGTGC | -0.359
54 | TCCGGAGA | -0.139
55 | ACCAACTA | 0.159
56 | CCACCTAG | -0.183
57 | CATCATCG | 0.204
58 | AAGACCGC | -0.151
59 | ATCTGACC | -0.0812
60 | GAGTGATC | 0.18
61 | ATTTACGA | 0.12
62 | TAGGCAGA | 0.0732
63 | GCTGGGCA | -0.142
64 | AGGTCCTC | -0.134
65 | AGCGTGAA | -0.0664
66 | ACCCTTCT | -0.139
67 | TCCGCTAA | -0.0291
68 | CGCCGTCA | -0.0399
69 | CGCTGTAC | 0.0257
70 | ACATGGGC | 0.0848
71 | CACGGAAG | -0.123
72 | GAGCGCGA | 0.0856
73 | GCTGCTCC | -0.176
74 | AACGTAGC | -0.0954
75 | ATGACTTA | 0.149

Row | Sequence | PBM E-score
76 | CTGTAGAC | -0.0711
77 | ATACTCGA | 0.0784
78 | CGCGCGCG | -0.0317
79 | TCGCTGCA | -0.0534
80 | CTGGATTA | 0.247
81 | TTACACAA | 0.239
82 | AATCCATC | 0.111
83 | CTGTAGCA | -0.13
84 | GCTTAGAA | 0.0547
85 | TCGTTACA | -0.0281
86 | AAGGCCGG | -0.0637
87 | GGTAGGGA | 0.0415
88 | CAAAGTTA | 0.0944
89 | CAAGCGAA | 0.187
90 | TCGGCCCA | -0.163
91 | ATTTGGGG | 0.122
92 | GGCTCGGA | -0.187
93 | CTGGTTAC | -0.0622
94 | ATCTTAAT | 0.137
95 | GAGGCGAC | -0.213
96 | AGCAACTA | 0.11
97 | CCTTAGTC | -0.214
98 | GCTTCTAA | -0.109
99 | CGCAACAA | 0.0628
100 | CCCTTAAA | -0.151

Row | Sequence | PBM E-score
101 | ATTTCCAG | 0.0539
102 | CCCATATC | 0.156
103 | CGAACGCA | 0.242
104 | GCGCCTCA | 0.0601
105 | ACATTTCT | 0.114
106 | AGGGCAAC | -0.00754
107 | CACTCAAG | -0.148
108 | ATCGCGGC | 0.129
109 | CCATGCAG | 0.0336
110 | AACCGGCA | -0.126
111 | AAAACAAC | -0.0722
112 | CACATAGG | -0.0157
113 | CAGGTTGA | -0.0949
114 | CCTCCATC | -0.151
115 | AAAATAAG | 0.223
116 | ATTGCTTC | -0.0228
117 | ACGACCGT | -0.249
118 | GCAGGCAC | -0.29
119 | AGGATCGC | -0.0224
120 | CGAGTACA | 0.131
121 | ACCAACAC | 0.124
122 | CCGTCCAA | 0.00895
123 | CGGAGTGC | -0.01
124 | GGGCGGGA | 0.154
125 | AGCGTTTG | -0.128

Row | Sequence | PBM E-score
126 | AGCAGCAA | -0.0541
127 | ACAGGGGT | -0.208
128 | CCAACCAC | 0.116
129 | AACTCACA | 0.149
130 | TCGGGCCA | -0.183
131 | ACTCTTTG | -0.0462
132 | ACCCTTAA | -0.112
133 | ACTACCCT | -0.0182
134 | GACTCCAC | -0.187
135 | AGCTGCAC | 0.0426
136 | CTAAGAAA | -0.0357
137 | ACCATAAC | 0.074
138 | AAAAGGAT | 0.0256
139 | GACGTCAC | 0.00326
140 | CACGTAAA | -0.0217
141 | CCTCTGTC | -0.0833
142 | ACTTACAT | 0.201
143 | CCCGCTAC | -0.089
144 | AGAAACAC | 0.0288
145 | AGATAGGA | -0.122
146 | ACATCGAA | 0.136
147 | AGGAGTAG | -0.0454
148 | CAACAAGA | 0.0827
149 | AACTCCAA | 0.134
150 | CCACCTAC | -0.164

Row | Sequence | PBM E-score
151 | CATAAAAG | -0.0651
152 | AGGACCAA | -0.0567
153 | ACTGGCTA | -0.0993
154 | CTCAGTAC | 0.0422
155 | AGCGTGCC | -0.203
156 | GAGTTCCA | -0.0283
157 | CGCCCCAA | 0.173
158 | GCTGTCCC | -0.145
159 | CGTTTCTC | -0.147
160 | GTATGTAA | 0.242
161 | GACCGGTC | -0.0542
162 | GACCTTCC | -0.147
163 | ACACGGAC | -0.132
164 | CACAATTA | 0.0753
165 | CCCGTAAA | 0.0279
166 | CATATTAG | 0.16
167 | AGGCTCCA | -0.178
168 | ACATGGGA | 0.115
169 | GGCTTGTA | -0.122
170 | ATTCCTGG | 0.032
171 | GCGGCCAA | -0.164
172 | ATTACTAG | 0.105

From no. 121 to 172, as listed above:
Row | Sequence | PBM E-score
121 | ACCAACAC | 0.124
122 | CCGTCCAA | 0.00895
123 | CGGAGTGC | -0.01
124 | GGGCGGGA | 0.154
125 | AGCGTTTG | -0.128
126 | AGCAGCAA | -0.0541
127 | ACAGGGGT | -0.208
128 | CCAACCAC | 0.116
129 | AACTCACA | 0.149
130 | TCGGGCCA | -0.183
131 | ACTCTTTG | -0.0462
132 | ACCCTTAA | -0.112
133 | ACTACCCT | -0.0182
134 | GACTCCAC | -0.187
135 | AGCTGCAC | 0.0426
136 | CTAAGAAA | -0.0357
137 | ACCATAAC | 0.074
138 | AAAAGGAT | 0.0256
139 | GACGTCAC | 0.00326
140 | CACGTAAA | -0.0217
141 | CCTCTGTC | -0.0833
142 | ACTTACAT | 0.201
143 | CCCGCTAC | -0.089
144 | AGAAACAC | 0.0288
145 | AGATAGGA | -0.122
146 | ACATCGAA | 0.136
147 | AGGAGTAG | -0.0454
148 | CAACAAGA | 0.0827
149 | AACTCCAA | 0.134
150 | CCACCTAC | -0.164
151 | CATAAAAG | -0.0651
152 | AGGACCAA | -0.0567
153 | ACTGGCTA | -0.0993
154 | CTCAGTAC | 0.0422
155 | AGCGTGCC | -0.203
156 | GAGTTCCA | -0.0283
157 | CGCCCCAA | 0.173
158 | GCTGTCCC | -0.145
159 | CGTTTCTC | -0.147
160 | GTATGTAA | 0.242
161 | GACCGGTC | -0.0542
162 | GACCTTCC | -0.147
163 | ACACGGAC | -0.132
164 | CACAATTA | 0.0753
165 | CCCGTAAA | 0.0279
166 | CATATTAG | 0.16
167 | AGGCTCCA | -0.178
168 | ACATGGGA | 0.115
169 | GGCTTGTA | -0.122
170 | ATTCCTGG | 0.032
171 | GCGGCCAA | -0.164
172 | ATTACTAG | 0.105

Source: the supplement of paper PMC3334620
